From article PMC10454331
No constants are given. Whether binding was seen depends on the method and setting. Some binding calls cover weakened binding; strength is not graded here.

Amino acid sequences for entries named in this document (tags omitted). Residues count along the entry.
UniProt Q80T03, residues 23-2850: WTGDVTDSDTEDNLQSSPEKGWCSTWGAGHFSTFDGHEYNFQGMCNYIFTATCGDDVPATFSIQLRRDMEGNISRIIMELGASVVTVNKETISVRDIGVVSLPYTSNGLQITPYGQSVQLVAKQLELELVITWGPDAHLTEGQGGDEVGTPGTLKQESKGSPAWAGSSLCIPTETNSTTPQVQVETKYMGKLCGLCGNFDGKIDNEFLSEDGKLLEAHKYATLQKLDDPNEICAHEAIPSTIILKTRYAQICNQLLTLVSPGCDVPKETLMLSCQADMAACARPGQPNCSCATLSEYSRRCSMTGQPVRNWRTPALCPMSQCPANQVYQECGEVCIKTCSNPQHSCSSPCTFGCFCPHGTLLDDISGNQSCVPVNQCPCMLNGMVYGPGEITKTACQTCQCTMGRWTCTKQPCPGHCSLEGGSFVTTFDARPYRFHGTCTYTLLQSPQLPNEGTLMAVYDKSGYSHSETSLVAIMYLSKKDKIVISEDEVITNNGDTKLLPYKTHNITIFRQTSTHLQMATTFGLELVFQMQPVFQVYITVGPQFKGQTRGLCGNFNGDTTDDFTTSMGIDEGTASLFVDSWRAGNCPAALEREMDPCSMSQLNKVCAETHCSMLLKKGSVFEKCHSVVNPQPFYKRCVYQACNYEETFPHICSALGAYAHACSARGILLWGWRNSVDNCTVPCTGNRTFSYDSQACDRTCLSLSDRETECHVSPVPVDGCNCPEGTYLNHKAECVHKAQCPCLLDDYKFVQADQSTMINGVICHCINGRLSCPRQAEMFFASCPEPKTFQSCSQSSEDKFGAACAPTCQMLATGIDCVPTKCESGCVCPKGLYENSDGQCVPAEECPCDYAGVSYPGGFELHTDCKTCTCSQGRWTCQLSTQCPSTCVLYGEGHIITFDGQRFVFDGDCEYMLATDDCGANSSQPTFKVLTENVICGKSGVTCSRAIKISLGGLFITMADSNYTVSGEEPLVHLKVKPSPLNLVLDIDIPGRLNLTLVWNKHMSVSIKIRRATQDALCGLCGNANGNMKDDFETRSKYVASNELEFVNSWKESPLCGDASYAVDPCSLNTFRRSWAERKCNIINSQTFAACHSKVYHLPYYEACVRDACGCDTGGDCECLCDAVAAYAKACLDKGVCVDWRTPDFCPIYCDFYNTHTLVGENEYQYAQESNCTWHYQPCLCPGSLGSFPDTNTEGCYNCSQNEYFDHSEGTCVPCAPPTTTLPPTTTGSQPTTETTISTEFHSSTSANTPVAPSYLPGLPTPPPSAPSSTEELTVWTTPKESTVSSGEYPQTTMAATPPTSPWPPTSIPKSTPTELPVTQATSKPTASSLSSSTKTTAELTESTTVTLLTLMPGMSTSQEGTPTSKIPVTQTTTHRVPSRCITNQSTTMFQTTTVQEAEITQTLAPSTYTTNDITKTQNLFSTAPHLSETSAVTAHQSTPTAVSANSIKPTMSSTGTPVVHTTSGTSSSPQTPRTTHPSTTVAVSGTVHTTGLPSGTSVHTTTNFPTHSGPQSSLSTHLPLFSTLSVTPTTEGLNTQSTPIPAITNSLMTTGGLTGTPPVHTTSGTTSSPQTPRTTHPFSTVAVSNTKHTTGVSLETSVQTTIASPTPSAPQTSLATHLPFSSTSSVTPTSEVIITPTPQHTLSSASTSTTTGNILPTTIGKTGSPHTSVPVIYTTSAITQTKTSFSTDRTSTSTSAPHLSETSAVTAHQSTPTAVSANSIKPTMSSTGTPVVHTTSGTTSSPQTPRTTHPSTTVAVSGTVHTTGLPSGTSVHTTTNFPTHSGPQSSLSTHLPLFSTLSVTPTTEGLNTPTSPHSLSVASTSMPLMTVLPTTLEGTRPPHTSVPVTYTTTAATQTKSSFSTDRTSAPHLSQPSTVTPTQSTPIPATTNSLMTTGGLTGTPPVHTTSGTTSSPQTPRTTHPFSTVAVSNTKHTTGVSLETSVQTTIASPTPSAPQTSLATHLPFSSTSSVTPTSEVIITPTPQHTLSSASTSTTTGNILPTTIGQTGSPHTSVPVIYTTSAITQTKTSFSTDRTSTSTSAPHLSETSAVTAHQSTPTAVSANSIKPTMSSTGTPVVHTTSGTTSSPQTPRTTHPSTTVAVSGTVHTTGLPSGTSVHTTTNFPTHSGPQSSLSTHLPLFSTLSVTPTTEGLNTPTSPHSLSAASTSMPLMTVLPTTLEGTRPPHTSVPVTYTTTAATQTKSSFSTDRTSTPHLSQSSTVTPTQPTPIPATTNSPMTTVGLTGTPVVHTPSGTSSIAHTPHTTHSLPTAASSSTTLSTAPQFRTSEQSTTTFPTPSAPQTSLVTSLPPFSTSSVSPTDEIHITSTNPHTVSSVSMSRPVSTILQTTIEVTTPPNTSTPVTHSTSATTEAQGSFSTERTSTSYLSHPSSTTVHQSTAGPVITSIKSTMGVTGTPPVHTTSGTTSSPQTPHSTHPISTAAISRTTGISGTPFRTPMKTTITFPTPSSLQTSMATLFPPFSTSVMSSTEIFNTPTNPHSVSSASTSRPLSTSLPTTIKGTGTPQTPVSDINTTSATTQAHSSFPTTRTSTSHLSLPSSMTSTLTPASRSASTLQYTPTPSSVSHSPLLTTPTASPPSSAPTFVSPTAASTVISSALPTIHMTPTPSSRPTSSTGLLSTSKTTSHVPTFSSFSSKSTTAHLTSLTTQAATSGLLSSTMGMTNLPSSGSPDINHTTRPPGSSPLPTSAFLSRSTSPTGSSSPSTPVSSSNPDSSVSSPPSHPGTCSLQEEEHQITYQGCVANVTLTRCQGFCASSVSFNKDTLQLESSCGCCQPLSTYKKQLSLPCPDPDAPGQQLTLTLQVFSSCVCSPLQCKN

Target: mucin Muc6, murine (mouse (endogenous in murine caecum/colon)) (UniProt Q80T03)
Assay: SEC; extract of murine caecum plus total colon (single individual) on Superdex 75 HL; Tff2 by Western blot of fractions after reducing and non-reducing SDS-PAGE; Muc6 by lectin GSA-II after 1% AgGE of fractions B6-C2

B1: Tff2 (trefoil factor family peptide 2), murine (protein, UniProt Q03404 24-129)
chain: EKPSPCRCSRLTPHNRKNCGFPGITSEQCFDLGCCFDSSVAGVPWCFHPLPNQESEQCVMEVSARKNCGYPGISPEDCASRNCCFSNLIFEVPWCFFPQSVEDCHY
  binding: binds
